In US20050014690A1, “Styryl acrylonitrile compounds and their use to promote myelopoiesis” (priority 2001, published 2005):

System: normal bone marrow mononuclear cells
Test: Long-term culture-initiating cell (LTC-IC) assay on stroma after pre-incubation
Format: cell-based, human
Conditions: colonies after pre-incubation with 50 uM for 5 hours
Text: The long-term BM culture system provides the means to investigate the proliferation and differentiation properties of primitive hematopoietic cells. To assess the long-term effects of CR4 on early progenitor cells the long-term culture-initiating cell (LTC-IC) assay was set up utilizing stromal microenvironment. Briefly, to obtain stromal cells bone marrow mononuclear cells were suspended in long-term culture (LTC) media (MyeloCult Stem Cell Technologies Inc.) supplemented with 10^−6 mol/L hydrocortisone sodium succinate (HSS; Sigma Aldrich Canada Ltd., Mississauga, Ont.,Canada). Approximately 1×10^7 cells were plated into 25 cm^2 tissue culture flasks (Becton Dickinson Labware, Franklin Lakes, N.J., USA) and incubated for 3 days at […] in a humidified atmosphere with 5% CO2 followed by incubation at 33° C. Cultures were re-fed weekly by replacing half of the medium. Following stromal confluency (3-6 weeks) cells were trypsinized and irradiated (1,500 cGy) using a Cs source. Stromal cells were again replated in LTC media at a concentration of 0.5-1.0×10^6 cells per 35 mm culture dishes (Nunc-Gibco BRL, Gaithersburg, Md.). Subcultured stroma was incubated for 2-3 days (at greater than 70% confluency) prior to co-culturing with fresh non-adherent overlay of hematopoietic cells. […]

With `N#C/C(=C\C=C\c1ccc(O)c(O)c1)C(=O)NCc1ccccc1` [CR4, (E,E)-2-(Benzylaminocarbonyl)-3-(3,4-dihydroxystyryl)acrylonitrile] the colony morphology was “normal morphology” and the “cytokine growth dependency of colonies” value was “demonstrated cytokine growth dependency”.
